From the supplement of paper PMC12823440, “Inhibitors supercharge kinase turnover through native proteolytic circuits” (Nature, 2025)
This is one part of the list. The calls rarely recur for the same compound in another form.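 Kinases were expressed as nanoluciferase fusions in K562 cells and luminescence was read every 4 h between 2 and 18 h as percent of control, DMSO set to 100% and a positive control to 0%. A time point counts as decreased when the signal drops significantly (2 sigma). The hit call is the authors' own, does not follow from the count of time points alone, and its rule is not shown.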

By UniProt entry, the sequences of proteins in these tests, tags left out. Where a name states a change or a piece, a line headed by the entry shows the natural chain unless it says otherwise.
UniProt Q15208: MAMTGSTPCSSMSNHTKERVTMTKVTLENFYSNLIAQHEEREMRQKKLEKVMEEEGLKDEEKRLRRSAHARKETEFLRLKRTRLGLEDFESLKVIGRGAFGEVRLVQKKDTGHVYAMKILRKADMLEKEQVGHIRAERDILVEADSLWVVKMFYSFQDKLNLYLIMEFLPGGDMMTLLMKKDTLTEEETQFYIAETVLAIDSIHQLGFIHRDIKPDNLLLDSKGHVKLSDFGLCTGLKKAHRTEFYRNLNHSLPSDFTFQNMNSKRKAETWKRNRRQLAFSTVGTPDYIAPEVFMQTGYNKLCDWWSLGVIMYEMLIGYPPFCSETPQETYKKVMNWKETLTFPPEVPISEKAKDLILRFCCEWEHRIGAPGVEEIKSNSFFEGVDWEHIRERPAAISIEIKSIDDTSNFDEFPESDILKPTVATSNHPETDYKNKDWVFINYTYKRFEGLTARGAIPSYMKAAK
UniProt P29597: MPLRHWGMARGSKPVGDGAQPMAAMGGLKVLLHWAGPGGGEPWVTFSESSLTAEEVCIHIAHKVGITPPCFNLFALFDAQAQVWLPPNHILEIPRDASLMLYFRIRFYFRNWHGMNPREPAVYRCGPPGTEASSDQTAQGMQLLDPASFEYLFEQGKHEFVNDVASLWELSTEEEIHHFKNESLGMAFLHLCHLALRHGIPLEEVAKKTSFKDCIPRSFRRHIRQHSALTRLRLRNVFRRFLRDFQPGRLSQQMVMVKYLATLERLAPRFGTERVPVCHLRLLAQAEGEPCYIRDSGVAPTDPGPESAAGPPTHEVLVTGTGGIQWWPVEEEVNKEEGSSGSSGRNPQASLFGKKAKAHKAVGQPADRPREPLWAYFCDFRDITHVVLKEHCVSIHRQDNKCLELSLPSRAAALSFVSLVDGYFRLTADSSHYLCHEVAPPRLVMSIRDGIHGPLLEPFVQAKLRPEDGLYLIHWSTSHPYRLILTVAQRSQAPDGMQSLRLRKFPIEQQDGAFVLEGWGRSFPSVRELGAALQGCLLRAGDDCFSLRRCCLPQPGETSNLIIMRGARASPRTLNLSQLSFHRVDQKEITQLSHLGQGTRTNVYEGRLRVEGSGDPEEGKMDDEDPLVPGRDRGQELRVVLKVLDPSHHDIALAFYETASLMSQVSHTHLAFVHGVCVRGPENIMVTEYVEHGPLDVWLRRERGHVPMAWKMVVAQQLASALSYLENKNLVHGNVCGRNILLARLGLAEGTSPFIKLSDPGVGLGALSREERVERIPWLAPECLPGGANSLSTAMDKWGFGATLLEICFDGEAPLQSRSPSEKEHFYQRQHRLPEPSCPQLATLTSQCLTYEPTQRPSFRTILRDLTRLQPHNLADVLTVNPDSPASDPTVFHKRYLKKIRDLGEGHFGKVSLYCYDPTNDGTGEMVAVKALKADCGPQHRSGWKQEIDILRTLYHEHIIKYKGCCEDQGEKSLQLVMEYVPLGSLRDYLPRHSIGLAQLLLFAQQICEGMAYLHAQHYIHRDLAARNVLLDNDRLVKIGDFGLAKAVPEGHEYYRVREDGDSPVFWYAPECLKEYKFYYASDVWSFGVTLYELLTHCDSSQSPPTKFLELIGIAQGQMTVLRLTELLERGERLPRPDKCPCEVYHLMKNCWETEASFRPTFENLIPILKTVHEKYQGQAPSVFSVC
UniProt P00519, whole entry: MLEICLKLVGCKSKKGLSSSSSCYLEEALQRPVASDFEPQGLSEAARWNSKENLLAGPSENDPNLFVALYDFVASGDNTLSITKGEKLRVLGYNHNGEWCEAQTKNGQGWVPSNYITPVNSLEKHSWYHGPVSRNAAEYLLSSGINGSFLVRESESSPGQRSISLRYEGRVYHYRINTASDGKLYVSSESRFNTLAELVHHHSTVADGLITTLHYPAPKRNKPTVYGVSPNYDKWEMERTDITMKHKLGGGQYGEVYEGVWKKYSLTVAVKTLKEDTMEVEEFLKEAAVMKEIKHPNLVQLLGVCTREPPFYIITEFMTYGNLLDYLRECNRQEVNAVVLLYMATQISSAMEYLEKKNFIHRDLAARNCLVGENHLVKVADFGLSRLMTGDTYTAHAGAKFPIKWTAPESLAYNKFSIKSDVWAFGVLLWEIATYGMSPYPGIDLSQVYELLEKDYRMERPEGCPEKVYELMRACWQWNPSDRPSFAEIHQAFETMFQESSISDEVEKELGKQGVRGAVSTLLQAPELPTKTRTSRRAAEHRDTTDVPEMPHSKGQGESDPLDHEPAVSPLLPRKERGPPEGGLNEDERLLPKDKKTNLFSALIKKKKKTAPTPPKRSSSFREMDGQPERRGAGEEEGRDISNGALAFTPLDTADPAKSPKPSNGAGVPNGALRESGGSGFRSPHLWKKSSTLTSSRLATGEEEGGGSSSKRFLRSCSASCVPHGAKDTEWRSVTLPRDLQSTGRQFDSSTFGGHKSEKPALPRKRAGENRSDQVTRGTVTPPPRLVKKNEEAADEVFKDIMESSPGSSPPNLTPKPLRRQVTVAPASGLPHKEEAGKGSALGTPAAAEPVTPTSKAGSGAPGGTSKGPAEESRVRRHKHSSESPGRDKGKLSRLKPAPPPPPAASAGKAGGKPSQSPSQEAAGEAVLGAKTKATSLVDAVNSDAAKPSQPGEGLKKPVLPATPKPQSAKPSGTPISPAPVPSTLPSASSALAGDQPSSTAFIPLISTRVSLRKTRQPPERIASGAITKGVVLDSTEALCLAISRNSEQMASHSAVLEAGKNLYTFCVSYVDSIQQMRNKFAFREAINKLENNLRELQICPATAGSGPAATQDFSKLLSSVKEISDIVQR
UniProt P31749: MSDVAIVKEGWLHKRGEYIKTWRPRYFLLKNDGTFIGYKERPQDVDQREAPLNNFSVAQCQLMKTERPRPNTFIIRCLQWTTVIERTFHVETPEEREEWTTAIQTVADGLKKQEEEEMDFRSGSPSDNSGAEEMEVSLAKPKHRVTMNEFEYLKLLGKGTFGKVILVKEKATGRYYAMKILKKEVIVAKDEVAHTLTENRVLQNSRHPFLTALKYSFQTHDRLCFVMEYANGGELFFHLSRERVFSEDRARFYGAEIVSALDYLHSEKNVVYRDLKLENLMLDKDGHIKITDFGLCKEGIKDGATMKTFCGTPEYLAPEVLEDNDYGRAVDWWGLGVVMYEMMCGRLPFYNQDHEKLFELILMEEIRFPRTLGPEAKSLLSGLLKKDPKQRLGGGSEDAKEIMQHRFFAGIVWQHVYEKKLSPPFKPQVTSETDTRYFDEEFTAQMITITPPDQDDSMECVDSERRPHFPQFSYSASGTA
UniProt Q9UM73: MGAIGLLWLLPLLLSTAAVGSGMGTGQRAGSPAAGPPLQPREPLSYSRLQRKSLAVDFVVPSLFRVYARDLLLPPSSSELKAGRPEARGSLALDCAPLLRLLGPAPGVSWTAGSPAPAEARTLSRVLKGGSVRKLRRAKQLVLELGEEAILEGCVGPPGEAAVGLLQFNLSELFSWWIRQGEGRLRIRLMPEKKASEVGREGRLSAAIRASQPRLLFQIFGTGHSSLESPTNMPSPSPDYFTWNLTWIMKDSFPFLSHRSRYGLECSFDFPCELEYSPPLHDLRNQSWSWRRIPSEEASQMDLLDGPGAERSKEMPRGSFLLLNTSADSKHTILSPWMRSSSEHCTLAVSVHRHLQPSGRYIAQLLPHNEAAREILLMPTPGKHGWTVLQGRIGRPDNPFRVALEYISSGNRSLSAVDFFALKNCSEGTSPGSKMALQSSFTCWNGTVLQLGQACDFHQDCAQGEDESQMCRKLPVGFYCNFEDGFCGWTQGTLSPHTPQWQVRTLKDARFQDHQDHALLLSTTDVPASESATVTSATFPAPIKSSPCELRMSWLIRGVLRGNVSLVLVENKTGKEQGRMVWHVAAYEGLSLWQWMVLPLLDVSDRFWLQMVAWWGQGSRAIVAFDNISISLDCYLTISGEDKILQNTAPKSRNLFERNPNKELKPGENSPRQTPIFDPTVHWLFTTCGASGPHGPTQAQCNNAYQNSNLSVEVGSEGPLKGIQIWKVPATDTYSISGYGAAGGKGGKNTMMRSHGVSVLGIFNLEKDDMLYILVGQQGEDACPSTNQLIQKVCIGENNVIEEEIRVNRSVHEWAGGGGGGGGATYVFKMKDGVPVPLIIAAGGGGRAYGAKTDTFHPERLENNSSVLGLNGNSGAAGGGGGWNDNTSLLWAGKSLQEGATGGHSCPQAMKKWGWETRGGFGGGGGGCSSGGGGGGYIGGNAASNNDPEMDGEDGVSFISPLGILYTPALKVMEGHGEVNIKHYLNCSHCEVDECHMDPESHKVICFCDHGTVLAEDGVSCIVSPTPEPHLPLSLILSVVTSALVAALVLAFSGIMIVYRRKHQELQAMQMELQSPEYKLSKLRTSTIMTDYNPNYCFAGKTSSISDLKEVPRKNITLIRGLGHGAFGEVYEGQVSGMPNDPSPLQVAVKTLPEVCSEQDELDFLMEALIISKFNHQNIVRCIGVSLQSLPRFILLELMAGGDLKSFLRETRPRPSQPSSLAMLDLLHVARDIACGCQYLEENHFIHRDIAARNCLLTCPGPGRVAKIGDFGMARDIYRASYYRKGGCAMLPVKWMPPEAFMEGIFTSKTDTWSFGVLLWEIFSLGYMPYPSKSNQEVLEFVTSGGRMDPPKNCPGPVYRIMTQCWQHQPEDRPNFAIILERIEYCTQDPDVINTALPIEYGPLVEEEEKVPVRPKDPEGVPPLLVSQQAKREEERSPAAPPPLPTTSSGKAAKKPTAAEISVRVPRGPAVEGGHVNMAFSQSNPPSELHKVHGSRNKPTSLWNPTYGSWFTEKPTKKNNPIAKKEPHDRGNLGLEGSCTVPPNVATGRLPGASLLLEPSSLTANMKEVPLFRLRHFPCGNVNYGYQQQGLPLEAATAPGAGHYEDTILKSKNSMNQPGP
UniProt P10398: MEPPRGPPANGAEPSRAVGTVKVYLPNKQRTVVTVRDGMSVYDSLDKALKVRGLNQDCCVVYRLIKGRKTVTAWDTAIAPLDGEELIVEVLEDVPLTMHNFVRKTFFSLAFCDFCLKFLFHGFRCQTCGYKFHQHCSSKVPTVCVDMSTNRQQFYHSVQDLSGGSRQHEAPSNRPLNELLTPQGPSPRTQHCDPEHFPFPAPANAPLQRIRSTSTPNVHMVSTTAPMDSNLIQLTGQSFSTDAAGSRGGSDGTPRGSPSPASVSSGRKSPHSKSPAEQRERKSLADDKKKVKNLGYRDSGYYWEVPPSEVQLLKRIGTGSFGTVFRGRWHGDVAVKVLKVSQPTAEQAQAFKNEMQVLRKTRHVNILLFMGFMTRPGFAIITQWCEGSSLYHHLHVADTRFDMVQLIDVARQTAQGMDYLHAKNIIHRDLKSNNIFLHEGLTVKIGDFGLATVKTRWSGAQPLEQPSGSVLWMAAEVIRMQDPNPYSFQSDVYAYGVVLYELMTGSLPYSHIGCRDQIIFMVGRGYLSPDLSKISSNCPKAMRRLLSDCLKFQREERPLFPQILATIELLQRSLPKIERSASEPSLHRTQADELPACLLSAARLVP
UniProt O14965: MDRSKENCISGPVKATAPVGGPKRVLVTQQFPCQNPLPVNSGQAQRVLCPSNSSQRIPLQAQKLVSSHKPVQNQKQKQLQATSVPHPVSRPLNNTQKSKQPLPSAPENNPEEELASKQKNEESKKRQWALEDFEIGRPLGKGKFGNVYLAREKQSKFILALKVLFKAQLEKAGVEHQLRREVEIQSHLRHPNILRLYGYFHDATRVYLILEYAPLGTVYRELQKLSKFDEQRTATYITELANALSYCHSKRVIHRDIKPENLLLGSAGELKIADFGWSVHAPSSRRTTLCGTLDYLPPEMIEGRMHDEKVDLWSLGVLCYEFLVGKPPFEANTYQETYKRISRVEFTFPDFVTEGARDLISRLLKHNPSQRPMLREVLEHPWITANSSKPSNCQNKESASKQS
UniProt P51451: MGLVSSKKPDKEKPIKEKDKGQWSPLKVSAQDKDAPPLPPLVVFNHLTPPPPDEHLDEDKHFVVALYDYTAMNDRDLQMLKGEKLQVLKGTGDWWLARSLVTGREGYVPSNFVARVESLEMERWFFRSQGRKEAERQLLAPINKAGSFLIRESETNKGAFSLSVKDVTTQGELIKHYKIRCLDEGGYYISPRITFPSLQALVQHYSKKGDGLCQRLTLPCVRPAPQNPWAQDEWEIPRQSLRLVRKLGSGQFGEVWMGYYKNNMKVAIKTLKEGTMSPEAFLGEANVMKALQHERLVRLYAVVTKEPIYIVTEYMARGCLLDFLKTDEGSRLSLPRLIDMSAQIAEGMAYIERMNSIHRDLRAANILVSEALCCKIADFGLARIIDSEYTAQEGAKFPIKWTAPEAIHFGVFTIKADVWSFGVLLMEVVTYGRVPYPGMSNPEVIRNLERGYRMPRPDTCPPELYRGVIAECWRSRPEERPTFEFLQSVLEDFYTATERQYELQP

Columns and labels:
Conditions in all cases: K562; 2-18 h
[1] = target: STK38 (UniProt Q15208); assay: kinase-Nluc reporter destabilization hit call (1 = scored as downregulated) (binary); higher = compound decreases kinase abundance
[2] = target: SYK (UniProt P43405); assay: as above
[3] = target: TEC (UniProt P42680); assay: as above
[4] = target: TYK2 (UniProt P29597); assay: as above
[5] = target: ULK3 (UniProt Q6PHR2); assay: as above
[6] = target: YES1 (UniProt P07947); assay: as above
[7] = target: ZAK (UniProt Q9NYL2); assay: as above
[8] = target: ZAP70 (UniProt P43403); assay: as above
[9] = target: ABL1 (UniProt P00519); assay: number of time points (of 5) at which kinase-Nluc abundance scored as decreased, DMSO-normalised (count); higher = more persistent destabilization
[10] = target: AKT1 (UniProt P31749); assay: as above
[11] = target: ALK (UniProt Q9UM73); assay: as above
[12] = target: ARAF (UniProt P10398); assay: as above
[13] = target: AURKA (UniProt O14965); assay: as above
[14] = target: AURKB (UniProt Q96GD4); assay: as above
[15] = target: AURKC (UniProt Q9UQB9); assay: as above
[16] = target: BLK (UniProt P51451); assay: as above
[17] = target: BMX (UniProt P51813); assay: as above
[18] = target: BRAF (UniProt P15056); assay: as above
[19] = system: BRAF_V600E; assay: as above
[20] = target: BTK (UniProt Q06187); assay: as above

CCC(=O)Nc1cccc(Oc2nc(Nc3ccc(N4CCN(C)CC4)cc3OC)ncc2Cl)c1 (10 µM)
inactive: kinase-Nluc reporter destabilization hit call [1] 0 | kinase-Nluc reporter destabilization hit call [2] 0 | kinase-Nluc reporter destabilization hit call [3] 0 | kinase-Nluc reporter destabilization hit call [4] 0 | kinase-Nluc reporter destabilization hit call [5] 0 | kinase-Nluc reporter destabilization hit call [6] 0 | kinase-Nluc reporter destabilization hit call [7] 0 | kinase-Nluc reporter destabilization hit call [8] 0
0: number of time points [9] | number of time points [10] | number of time points [11] | number of time points [12] | number of time points [13] | number of time points [14] | number of time points [15] | number of time points [16] | number of time points [17] | number of time points [18] | number of time points [19] | number of time points [20]

COc1cc(-c2oc3cc(O)cc(O)c3c(=O)c2O)ccc1O [Isorhamnetin] (10 µM)
0: number of time points [9] | number of time points [10] | number of time points [11] | number of time points [12] | number of time points [13] | number of time points [14] | number of time points [15] | number of time points [16] | number of time points [17] | number of time points [18] | number of time points [19] | number of time points [20]
inactive: kinase-Nluc reporter destabilization hit call [1] 0 | kinase-Nluc reporter destabilization hit call [2] 0 | kinase-Nluc reporter destabilization hit call [3] 0 | kinase-Nluc reporter destabilization hit call [4] 0 | kinase-Nluc reporter destabilization hit call [5] 0 | kinase-Nluc reporter destabilization hit call [6] 0 | kinase-Nluc reporter destabilization hit call [7] 0 | kinase-Nluc reporter destabilization hit call [8] 0

Cc1c(C(=O)Nc2ccc(Oc3ccnc4[nH]cc(-c5ccccc5)c34)c(F)c2)c(=O)n(-c2ccc(F)cc2)n1C (10 µM)
0: number of time points [10] | number of time points [11] | number of time points [12] | number of time points [13] | number of time points [14] | number of time points [15] | number of time points [16] | number of time points [17] | number of time points [18] | number of time points [20]
inactive: kinase-Nluc reporter destabilization hit call [1] 0 | kinase-Nluc reporter destabilization hit call [2] 0 | kinase-Nluc reporter destabilization hit call [3] 0 | kinase-Nluc reporter destabilization hit call [4] 0 | kinase-Nluc reporter destabilization hit call [5] 0 | kinase-Nluc reporter destabilization hit call [6] 0 | kinase-Nluc reporter destabilization hit call [7] 0 | kinase-Nluc reporter destabilization hit call [8] 0
4: number of time points [9]
1: number of time points [19]

CC(O)(C#Cc1ccc2c(c1)N(c1nc(N)ncc1Cl)CC2)c1nccs1 (stereo not given) (2.5 µM)
inactive: kinase-Nluc reporter destabilization hit call [1] 0 | kinase-Nluc reporter destabilization hit call [2] 0 | kinase-Nluc reporter destabilization hit call [3] 0 | kinase-Nluc reporter destabilization hit call [4] 0 | kinase-Nluc reporter destabilization hit call [5] 0 | kinase-Nluc reporter destabilization hit call [6] 0 | kinase-Nluc reporter destabilization hit call [7] 0 | kinase-Nluc reporter destabilization hit call [8] 0
0: number of time points [9] | number of time points [10] | number of time points [11] | number of time points [12] | number of time points [13] | number of time points [14] | number of time points [15] | number of time points [16] | number of time points [17] | number of time points [18] | number of time points [19] | number of time points [20]

COc1cc2nccc(Oc3ccc(NC(=O)c4cn(C(C)C)c(=O)n(-c5ccc(F)cc5)c4=O)cc3F)c2cc1OC (0.5 µM)
1: number of time points [10] | number of time points [13]
inactive: kinase-Nluc reporter destabilization hit call [1] 0 | kinase-Nluc reporter destabilization hit call [2] 0 | kinase-Nluc reporter destabilization hit call [3] 0 | kinase-Nluc reporter destabilization hit call [4] 0 | kinase-Nluc reporter destabilization hit call [5] 0 | kinase-Nluc reporter destabilization hit call [6] 0 | kinase-Nluc reporter destabilization hit call [7] 0 | kinase-Nluc reporter destabilization hit call [8] 0
4: number of time points [9]
0: number of time points [11] | number of time points [12] | number of time points [14] | number of time points [15] | number of time points [16] | number of time points [18] | number of time points [19] | number of time points [20]
2: number of time points [17]

COc1cc(N2CCC(N3CCN(C)CC3)CC2)ccc1Nc1ncc(Cl)c(-c2c[nH]c3ccccc23)n1 (2.5 µM)
inactive: kinase-Nluc reporter destabilization hit call [1] 0 | kinase-Nluc reporter destabilization hit call [2] 0 | kinase-Nluc reporter destabilization hit call [3] 0 | kinase-Nluc reporter destabilization hit call [4] 0 | kinase-Nluc reporter destabilization hit call [5] 0 | kinase-Nluc reporter destabilization hit call [6] 0 | kinase-Nluc reporter destabilization hit call [7] 0 | kinase-Nluc reporter destabilization hit call [8] 0
0: number of time points [9] | number of time points [10] | number of time points [11] | number of time points [12] | number of time points [13] | number of time points [14] | number of time points [15] | number of time points [16] | number of time points [17] | number of time points [18] | number of time points [19] | number of time points [20]

C=CC(=O)N1CCN(C(=O)CNc2cc(I)c(Cl)cc2O)CC1 [K-Ras(G12C) inhibitor 12] (10 µM)
inactive: kinase-Nluc reporter destabilization hit call [1] 0 | kinase-Nluc reporter destabilization hit call [2] 0 | kinase-Nluc reporter destabilization hit call [3] 0 | kinase-Nluc reporter destabilization hit call [4] 0 | kinase-Nluc reporter destabilization hit call [5] 0 | kinase-Nluc reporter destabilization hit call [6] 0 | kinase-Nluc reporter destabilization hit call [7] 0 | kinase-Nluc reporter destabilization hit call [8] 0
0: number of time points [9] | number of time points [10] | number of time points [11] | number of time points [12] | number of time points [13] | number of time points [14] | number of time points [15] | number of time points [16] | number of time points [17] | number of time points [18] | number of time points [19] | number of time points [20]

Two compounds picked at random from the list so far, as already listed:
COc1cc(N2CCC(N3CCN(C)CC3)CC2)ccc1Nc1ncc(Cl)c(-c2c[nH]c3ccccc23)n1 (2.5 µM)
inactive: kinase-Nluc reporter destabilization hit call [1] 0 | kinase-Nluc reporter destabilization hit call [2] 0 | kinase-Nluc reporter destabilization hit call [3] 0 | kinase-Nluc reporter destabilization hit call [4] 0 | kinase-Nluc reporter destabilization hit call [5] 0 | kinase-Nluc reporter destabilization hit call [6] 0 | kinase-Nluc reporter destabilization hit call [7] 0 | kinase-Nluc reporter destabilization hit call [8] 0
0: number of time points [9] | number of time points [10] | number of time points [11] | number of time points [12] | number of time points [13] | number of time points [14] | number of time points [15] | number of time points [16] | number of time points [17] | number of time points [18] | number of time points [19] | number of time points [20]

COc1cc2nccc(Oc3ccc(NC(=O)c4cn(C(C)C)c(=O)n(-c5ccc(F)cc5)c4=O)cc3F)c2cc1OC (0.5 µM)
1: number of time points [10] | number of time points [13]
inactive: kinase-Nluc reporter destabilization hit call [1] 0 | kinase-Nluc reporter destabilization hit call [2] 0 | kinase-Nluc reporter destabilization hit call [3] 0 | kinase-Nluc reporter destabilization hit call [4] 0 | kinase-Nluc reporter destabilization hit call [5] 0 | kinase-Nluc reporter destabilization hit call [6] 0 | kinase-Nluc reporter destabilization hit call [7] 0 | kinase-Nluc reporter destabilization hit call [8] 0
4: number of time points [9]
0: number of time points [11] | number of time points [12] | number of time points [14] | number of time points [15] | number of time points [16] | number of time points [18] | number of time points [19] | number of time points [20]
2: number of time points [17]

Next part.

Nc1ncc(-c2ccnc(Nc3ccncc3)n2)c(CC2CC2)n1 (10 µM)
0: number of time points [10] | number of time points [12] | number of time points [15] | number of time points [17] | number of time points [18] | number of time points [20]
inactive: kinase-Nluc reporter destabilization hit call [1] 0 | kinase-Nluc reporter destabilization hit call [2] 0 | kinase-Nluc reporter destabilization hit call [3] 0 | kinase-Nluc reporter destabilization hit call [4] 0 | kinase-Nluc reporter destabilization hit call [5] 0 | kinase-Nluc reporter destabilization hit call [6] 0 | kinase-Nluc reporter destabilization hit call [7] 0 | kinase-Nluc reporter destabilization hit call [8] 0
1: number of time points [14] | number of time points [16]
2: number of time points [11] | number of time points [13] | number of time points [19]
4: number of time points [9]

COc1cc(-c2cc(-c3ccc(N4CCNCC4)cc3)cnc2C)cc(OC)c1OC (10 µM)
0: number of time points [9] | number of time points [10] | number of time points [11] | number of time points [12] | number of time points [13] | number of time points [14] | number of time points [15] | number of time points [16] | number of time points [17] | number of time points [18] | number of time points [19] | number of time points [20]
inactive: kinase-Nluc reporter destabilization hit call [1] 0 | kinase-Nluc reporter destabilization hit call [2] 0 | kinase-Nluc reporter destabilization hit call [3] 0 | kinase-Nluc reporter destabilization hit call [4] 0 | kinase-Nluc reporter destabilization hit call [5] 0 | kinase-Nluc reporter destabilization hit call [6] 0 | kinase-Nluc reporter destabilization hit call [7] 0 | kinase-Nluc reporter destabilization hit call [8] 0
